Experimental data from PMC7524712.
No constants are given. Whether binding was seen depends on the method and setting. For part of these data: In cells and extracts the contact can be indirect. For part of these data: Binding calls can cover weak binding; strength is not graded here. Tags and fused reporters may be left off the sequences shown.

Tests used:
[1] = molecular target: T1, vdUTPase tagged with Strep-tag (SE-vdUTPase) (herpes simplex virus 1, strain F) (UniProt P10234); experiment: co-IP; Strep-tag affinity precipitation: lysates (0.5% NP-40 buffer, 150 mM NaCl) of Vero cells infected at an MOI of 10 for 12 h, Strep-Tactin sepharose beads, 4 °C, 1.5 h; immunoblot
T1 sequence: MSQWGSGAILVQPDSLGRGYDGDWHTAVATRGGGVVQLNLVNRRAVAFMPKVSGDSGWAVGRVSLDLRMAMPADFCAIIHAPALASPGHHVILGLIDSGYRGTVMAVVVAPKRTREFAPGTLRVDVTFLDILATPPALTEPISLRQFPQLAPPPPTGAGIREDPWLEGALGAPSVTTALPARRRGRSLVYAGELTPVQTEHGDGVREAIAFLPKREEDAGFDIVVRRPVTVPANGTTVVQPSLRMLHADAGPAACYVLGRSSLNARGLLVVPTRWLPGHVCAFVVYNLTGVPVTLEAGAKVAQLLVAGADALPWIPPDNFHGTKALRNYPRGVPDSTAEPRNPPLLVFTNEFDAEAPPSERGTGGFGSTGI

[2] = molecular target: T2, GST-vdUTPase_(201–280) (herpes simplex virus 1, strain F) (UniProt P10234); experiment: pull-down; purified GST, GST-vdUTPase_(201–280) or GST-vdUTPase_(281–371) immobilised on glutathione-sepharose resin, purified SE-piUL49 or SE-piUL49R83L in solution, 1 h at 4 °C, washed with 0.5% NP-40 buffer; immunoblot; both purified
T2 sequence: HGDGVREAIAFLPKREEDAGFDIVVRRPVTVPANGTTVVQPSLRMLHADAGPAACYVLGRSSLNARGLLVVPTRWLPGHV

[3] = molecular target: GST-piUL49R83L (herpes simplex virus 1, strain F); experiment: pull-down; purified GST-piUL49 or GST-piUL49R83L immobilised on glutathione-sepharose resin, purified 6xHis-SUMO-vdUTPase or 6xHis-SUMO-vUNG in solution, 1 h at 4 °C, washed with 0.5% NP-40 buffer; immunoblot; both purified

## iUL49R3/L3 mutant of piUL49 (herpes simplex virus 1, strain F)
[1]
  binding: no binding

## SE-piUL49R83L (herpes simplex virus 1, strain F)
[2]
  binding: no binding

## iUL49R7/L7 mutant of piUL49 (herpes simplex virus 1, strain F)
[1]
  binding: binds

## iUL49R83L mutant of piUL49 (herpes simplex virus 1, strain F)
[1]
  binding: no binding

## iUL49R6H1/L7 mutant of piUL49 (herpes simplex virus 1, strain F)
[1]
  binding: no binding

B1: 6xHis-SUMO-vdUTPase (enzyme, UniProt P10234 1-371)
chain: T1 sequence
[3]
  binding: no binding
